PubChem BioAssay AID1159592 – NIAID – 2016
Purpose: 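Gene knock-downs altering NF-kB activation in reporter macrophages given R848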. Cells: RAW264.7 macrophages from mouse bearing reporters for p65 (GFP) and the Tnf promoter (mCherry). Knock-down reagent: single siRNA against mouse genes. Timing: 48 to 72 hours after siRNA transfection. Conditions: R848 TLR ligand for 40 minutes before fixation; dose not given. Detection: 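Nuclear over cytoplasmic GFP-p65 signal imaged 40 minutes after R848, plate-normalised by median and MAD, given as robust z versus negative controls, mean of replicates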. Reading the numbers: NF-kB translocation z-score: higher = more p65 moved into the nucleus than in negative-control wells. Active means: 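Active when the replicate-mean z lies above 1.5 or below -1.5; the depositor also grades absolute z in steps of 1, 1.5, 2 and 2.5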. Meaning of the calls: active = strong change, either direction; inactive = little change.
The deposit covers 756 reagents; this is a part drawn at random. 147 of them (19%) were called active. 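Active covers both loss and gain of p65 entry; negative z means weaker NF-kB activation, positive means more nuclear p65.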 The numbers tell different reagents against one gene apart. Not stated in the record: the amount of reagent.

no.	target	reagent no.	NF-kB translocation z-score, replicate mean	Outcome
1	Tlr4	1	0.0437	inactive
2	Tlr4	2	0.704	inactive
3	Tlr4	3	-0.528	inactive
4	Tlr4	4	0.331	inactive
5	Tlr4	5	0.203	inactive
6	Tlr4	6	0.933	inactive
7	Pik3r5	1	0.317	inactive
8	Pik3r5	2	-0.0164	inactive
9	Pik3r5	3	-1.36	inactive
10	Pik3r5	4	-1.91	active
11	Pik3r5	5	-2.54	active
12	Pik3r5	6	-0.214	inactive
13	Il6	1	0.075	inactive
14	Il6	2	-0.484	inactive
15	Il6	3	-0.452	inactive
16	Il6	4	-1.33	inactive
17	Il6	5	0.171	inactive
18	Il6	6	0.206	inactive
19	Tank	1	-0.553	inactive
20	Tank	2	4.18	active
21	Tank	3	0.828	inactive
22	Tank	4	1.54	active
23	Tank	5	2.84	active
24	Tank	6	0.992	inactive
25	Tlr7	1	-2.2	active
26	Tlr7	2	-3.41	active
27	Tlr7	3	-3.1	active
28	Tlr7	4	-1.15	inactive
29	Tlr7	5	-3.85	active
30	Tlr7	6	-2.19	active
31	Ifnb1	1	1.12	inactive
32	Ifnb1	2	-0.522	inactive
33	Ifnb1	3	1.27	inactive
34	Ifnb1	4	0.107	inactive
35	Ifnb1	5	-0.276	inactive
36	Ifnb1	6	-0.828	inactive
37	Ube2v1	1	1.23	inactive
38	Ube2v1	2	-1.05	inactive
39	Ube2v1	3	-0.399	inactive
40	Ube2v1	4	0.466	inactive
41	Ube2v1	5	0.73	inactive
42	Ube2v1	6	-1.35	inactive
43	Map3k1	1	1.97	active
44	Map3k1	2	-1.99	active
45	Map3k1	3	0.216	inactive
46	Map3k1	4	0.176	inactive
47	Map3k1	5	0.331	inactive
48	Map3k1	6	0.379	inactive

Hits (from the list above):
target	reagent no.	NF-kB translocation z-score, replicate mean	Outcome
Pik3r5	4	-1.91	active
Pik3r5	5	-2.54	active
Tank	2	4.18	active
Tank	4	1.54	active
Tank	5	2.84	active
Tlr7	1	-2.2	active
Tlr7	2	-3.41	active
Tlr7	3	-3.1	active
Tlr7	5	-3.85	active
Tlr7	6	-2.19	active
Map3k1	1	1.97	active
Map3k1	2	-1.99	active
